# Measured values as given in article PMC7550656.
# By UniProt entry, the sequences of proteins in these tests, tags left out.
# UniProt Q04637: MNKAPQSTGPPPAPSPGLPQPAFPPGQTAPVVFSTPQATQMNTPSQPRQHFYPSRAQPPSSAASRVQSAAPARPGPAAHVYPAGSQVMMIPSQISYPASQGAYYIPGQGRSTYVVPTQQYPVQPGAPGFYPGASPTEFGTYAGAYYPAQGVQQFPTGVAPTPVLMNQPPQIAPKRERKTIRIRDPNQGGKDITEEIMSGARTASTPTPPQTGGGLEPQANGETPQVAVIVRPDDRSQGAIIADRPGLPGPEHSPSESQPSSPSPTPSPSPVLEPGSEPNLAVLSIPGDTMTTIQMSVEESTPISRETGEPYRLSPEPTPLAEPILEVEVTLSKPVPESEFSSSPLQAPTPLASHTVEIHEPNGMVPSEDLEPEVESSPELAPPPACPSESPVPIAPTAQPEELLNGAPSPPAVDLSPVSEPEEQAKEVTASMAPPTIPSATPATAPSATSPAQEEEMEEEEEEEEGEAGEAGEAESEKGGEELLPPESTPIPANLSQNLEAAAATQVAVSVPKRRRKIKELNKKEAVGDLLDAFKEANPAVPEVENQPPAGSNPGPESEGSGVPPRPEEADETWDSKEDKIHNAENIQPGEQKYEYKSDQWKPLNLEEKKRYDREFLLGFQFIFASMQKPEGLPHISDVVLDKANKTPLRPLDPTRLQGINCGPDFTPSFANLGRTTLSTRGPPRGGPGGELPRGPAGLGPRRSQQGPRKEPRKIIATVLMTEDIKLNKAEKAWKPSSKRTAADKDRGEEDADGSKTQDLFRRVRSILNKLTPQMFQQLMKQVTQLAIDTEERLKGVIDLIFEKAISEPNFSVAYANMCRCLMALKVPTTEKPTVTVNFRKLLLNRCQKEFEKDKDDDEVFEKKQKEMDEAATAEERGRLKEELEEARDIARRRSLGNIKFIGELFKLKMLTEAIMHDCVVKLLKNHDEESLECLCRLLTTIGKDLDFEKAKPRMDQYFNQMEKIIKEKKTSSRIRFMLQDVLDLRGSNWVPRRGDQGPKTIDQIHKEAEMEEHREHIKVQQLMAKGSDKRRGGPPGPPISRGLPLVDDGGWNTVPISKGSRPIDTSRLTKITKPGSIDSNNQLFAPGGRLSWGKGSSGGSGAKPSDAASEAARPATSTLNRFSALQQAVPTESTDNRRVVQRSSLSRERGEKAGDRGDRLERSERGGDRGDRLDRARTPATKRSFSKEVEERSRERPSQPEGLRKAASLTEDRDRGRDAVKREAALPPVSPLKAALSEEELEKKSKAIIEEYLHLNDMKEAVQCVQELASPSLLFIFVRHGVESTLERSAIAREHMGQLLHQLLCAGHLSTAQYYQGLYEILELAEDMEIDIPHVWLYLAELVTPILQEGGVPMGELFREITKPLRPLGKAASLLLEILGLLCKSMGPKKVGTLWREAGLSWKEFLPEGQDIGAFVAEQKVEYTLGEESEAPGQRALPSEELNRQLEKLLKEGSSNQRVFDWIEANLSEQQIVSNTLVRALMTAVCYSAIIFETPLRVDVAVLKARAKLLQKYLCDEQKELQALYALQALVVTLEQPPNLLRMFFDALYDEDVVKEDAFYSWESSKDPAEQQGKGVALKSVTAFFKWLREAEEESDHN
# UniProt Q13283: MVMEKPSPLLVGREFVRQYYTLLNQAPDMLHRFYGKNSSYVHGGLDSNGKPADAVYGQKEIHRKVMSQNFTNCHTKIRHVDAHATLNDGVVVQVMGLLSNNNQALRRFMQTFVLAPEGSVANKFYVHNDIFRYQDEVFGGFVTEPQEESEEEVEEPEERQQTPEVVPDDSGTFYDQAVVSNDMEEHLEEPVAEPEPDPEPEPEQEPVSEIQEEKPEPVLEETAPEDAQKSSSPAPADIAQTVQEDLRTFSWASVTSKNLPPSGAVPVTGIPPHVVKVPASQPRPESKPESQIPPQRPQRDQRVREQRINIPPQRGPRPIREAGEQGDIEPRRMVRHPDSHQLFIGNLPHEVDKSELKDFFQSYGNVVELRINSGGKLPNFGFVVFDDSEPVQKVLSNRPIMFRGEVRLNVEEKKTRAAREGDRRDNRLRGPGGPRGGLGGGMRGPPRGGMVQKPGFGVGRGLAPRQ
# These are yes or no findings as the source states them, for the method shown. Binding seen in cells or lysates may run through a third protein. Some binding calls cover weakened binding; strength is not graded here.
# Tests used:
# [1] = molecular target: eIF4GI, transfected (Figure 7E) (UniProt Q04637); assay: co-IP; 293T cells transfected with SVV 3C (and eIF4GI, by the legend) for 24 h; lysate immunoprecipitated with anti-eIF4GI antibodies, immunoblot
# [2] = molecular target: eIF4GI, endogenous (human (endogenous in 293T)) (UniProt Q04637); assay: co-IP; mock-infected 293T cells; lysate immunoprecipitated with anti-eIF4GI antibodies, immunoblot
substance,measurement,setting,value
"Ras-GTPase-activating protein SH3-domain-binding protein 1, endogenous (from UniProt Q13283 1-466)",binding,[1],binds weakly
same,binding,[2],binds
